# The supplement of paper PMC10849652
# Amino acid sequences for entries named in this document (tags omitted). A change or cut given only in a name is not applied to a line headed by its entry.
# UniProt O43741: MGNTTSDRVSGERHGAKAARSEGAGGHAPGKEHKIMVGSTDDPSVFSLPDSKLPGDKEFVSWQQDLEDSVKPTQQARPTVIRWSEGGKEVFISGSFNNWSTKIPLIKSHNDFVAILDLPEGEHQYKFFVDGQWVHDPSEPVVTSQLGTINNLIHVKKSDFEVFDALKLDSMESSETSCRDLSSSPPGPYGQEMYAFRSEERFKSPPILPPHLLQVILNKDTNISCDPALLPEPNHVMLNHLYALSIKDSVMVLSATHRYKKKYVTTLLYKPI
# UniProt Q9Y570: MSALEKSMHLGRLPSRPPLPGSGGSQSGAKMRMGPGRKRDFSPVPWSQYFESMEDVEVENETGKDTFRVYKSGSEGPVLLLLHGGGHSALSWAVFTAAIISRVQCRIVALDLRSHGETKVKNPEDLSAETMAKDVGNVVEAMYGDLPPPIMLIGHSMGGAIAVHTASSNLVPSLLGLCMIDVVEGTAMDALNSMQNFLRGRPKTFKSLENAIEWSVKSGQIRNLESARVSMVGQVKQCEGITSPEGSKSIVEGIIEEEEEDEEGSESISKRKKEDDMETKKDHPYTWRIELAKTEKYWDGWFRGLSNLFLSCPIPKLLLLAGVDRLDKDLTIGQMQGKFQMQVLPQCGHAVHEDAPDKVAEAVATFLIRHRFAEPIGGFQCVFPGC
# UniProt P53041: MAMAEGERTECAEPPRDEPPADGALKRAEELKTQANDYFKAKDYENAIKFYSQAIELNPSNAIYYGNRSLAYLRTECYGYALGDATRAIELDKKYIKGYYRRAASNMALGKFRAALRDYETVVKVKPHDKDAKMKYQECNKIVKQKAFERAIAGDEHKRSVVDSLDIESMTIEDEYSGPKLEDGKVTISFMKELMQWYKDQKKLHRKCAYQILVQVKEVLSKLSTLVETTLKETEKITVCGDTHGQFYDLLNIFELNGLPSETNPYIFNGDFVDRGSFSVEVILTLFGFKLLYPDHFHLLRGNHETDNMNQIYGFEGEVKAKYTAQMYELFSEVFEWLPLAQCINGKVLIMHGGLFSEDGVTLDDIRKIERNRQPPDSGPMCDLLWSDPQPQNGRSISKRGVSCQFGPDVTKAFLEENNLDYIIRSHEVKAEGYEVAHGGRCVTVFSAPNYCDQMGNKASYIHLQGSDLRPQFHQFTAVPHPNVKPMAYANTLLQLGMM
# UniProt Q9UPN7: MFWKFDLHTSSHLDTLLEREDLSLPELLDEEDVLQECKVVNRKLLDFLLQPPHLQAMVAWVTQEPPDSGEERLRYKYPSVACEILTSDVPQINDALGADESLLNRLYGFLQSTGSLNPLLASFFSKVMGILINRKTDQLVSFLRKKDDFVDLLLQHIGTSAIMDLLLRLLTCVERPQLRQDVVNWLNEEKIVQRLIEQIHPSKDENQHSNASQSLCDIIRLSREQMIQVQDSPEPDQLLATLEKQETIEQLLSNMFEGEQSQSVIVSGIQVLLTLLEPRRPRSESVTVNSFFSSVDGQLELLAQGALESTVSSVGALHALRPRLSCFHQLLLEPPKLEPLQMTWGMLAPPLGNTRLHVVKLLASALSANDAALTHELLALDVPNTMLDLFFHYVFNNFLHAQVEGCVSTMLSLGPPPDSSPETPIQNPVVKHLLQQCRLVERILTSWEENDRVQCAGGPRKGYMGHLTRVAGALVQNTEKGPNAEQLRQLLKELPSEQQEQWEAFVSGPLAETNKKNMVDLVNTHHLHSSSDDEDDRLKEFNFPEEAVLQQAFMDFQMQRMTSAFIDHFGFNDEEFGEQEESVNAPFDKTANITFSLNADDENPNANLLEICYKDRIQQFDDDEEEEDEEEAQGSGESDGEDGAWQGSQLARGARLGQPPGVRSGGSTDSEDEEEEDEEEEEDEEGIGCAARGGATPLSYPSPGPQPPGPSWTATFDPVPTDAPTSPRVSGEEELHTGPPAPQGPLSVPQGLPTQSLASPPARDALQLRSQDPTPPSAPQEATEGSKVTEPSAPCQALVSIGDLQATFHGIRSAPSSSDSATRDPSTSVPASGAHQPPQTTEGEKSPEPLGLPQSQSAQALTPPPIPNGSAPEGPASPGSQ
# UniProt Q96C90: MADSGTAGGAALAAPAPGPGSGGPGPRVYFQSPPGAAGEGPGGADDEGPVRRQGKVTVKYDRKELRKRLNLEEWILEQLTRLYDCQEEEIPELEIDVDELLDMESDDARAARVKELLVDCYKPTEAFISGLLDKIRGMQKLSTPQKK
# UniProt P42785: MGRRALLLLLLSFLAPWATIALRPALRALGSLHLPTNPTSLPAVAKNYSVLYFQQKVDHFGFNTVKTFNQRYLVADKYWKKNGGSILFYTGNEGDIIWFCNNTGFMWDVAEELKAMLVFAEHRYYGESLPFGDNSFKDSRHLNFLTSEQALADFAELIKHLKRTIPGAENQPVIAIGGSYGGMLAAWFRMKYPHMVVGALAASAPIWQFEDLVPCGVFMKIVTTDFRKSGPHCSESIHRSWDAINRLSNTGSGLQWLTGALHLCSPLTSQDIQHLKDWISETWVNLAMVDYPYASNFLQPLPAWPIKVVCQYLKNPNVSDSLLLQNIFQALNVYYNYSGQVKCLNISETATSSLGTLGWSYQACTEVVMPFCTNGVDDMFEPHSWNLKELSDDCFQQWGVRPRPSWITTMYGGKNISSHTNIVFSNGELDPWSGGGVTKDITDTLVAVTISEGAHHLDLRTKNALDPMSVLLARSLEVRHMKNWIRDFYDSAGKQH
# UniProt O60828: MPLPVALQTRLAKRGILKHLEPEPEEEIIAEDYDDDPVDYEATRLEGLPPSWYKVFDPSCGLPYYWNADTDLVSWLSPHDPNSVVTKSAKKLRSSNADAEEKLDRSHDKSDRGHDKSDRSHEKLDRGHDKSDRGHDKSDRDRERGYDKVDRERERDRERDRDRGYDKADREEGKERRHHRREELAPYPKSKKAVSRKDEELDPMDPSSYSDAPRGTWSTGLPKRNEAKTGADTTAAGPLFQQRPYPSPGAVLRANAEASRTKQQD
# UniProt P31323, whole entry, looked up: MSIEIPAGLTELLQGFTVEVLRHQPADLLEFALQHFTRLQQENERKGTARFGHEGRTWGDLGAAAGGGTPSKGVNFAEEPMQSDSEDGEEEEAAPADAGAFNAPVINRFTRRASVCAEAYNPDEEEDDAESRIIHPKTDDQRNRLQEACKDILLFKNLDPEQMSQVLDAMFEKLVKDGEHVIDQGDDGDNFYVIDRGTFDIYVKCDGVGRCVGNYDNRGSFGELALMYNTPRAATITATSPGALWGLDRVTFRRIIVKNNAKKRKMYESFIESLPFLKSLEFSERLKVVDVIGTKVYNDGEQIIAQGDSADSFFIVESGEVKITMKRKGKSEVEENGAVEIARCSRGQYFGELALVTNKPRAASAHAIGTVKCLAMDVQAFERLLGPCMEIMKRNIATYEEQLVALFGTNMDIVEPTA
# UniProt Q8TAP8: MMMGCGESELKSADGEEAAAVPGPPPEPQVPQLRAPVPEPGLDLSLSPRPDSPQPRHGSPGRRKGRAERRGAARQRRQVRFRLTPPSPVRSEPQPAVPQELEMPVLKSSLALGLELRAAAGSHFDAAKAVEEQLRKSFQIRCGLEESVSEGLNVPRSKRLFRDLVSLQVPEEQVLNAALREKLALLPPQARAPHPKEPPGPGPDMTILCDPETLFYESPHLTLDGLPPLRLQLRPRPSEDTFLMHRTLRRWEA
# UniProt Q13362, whole entry, looked up: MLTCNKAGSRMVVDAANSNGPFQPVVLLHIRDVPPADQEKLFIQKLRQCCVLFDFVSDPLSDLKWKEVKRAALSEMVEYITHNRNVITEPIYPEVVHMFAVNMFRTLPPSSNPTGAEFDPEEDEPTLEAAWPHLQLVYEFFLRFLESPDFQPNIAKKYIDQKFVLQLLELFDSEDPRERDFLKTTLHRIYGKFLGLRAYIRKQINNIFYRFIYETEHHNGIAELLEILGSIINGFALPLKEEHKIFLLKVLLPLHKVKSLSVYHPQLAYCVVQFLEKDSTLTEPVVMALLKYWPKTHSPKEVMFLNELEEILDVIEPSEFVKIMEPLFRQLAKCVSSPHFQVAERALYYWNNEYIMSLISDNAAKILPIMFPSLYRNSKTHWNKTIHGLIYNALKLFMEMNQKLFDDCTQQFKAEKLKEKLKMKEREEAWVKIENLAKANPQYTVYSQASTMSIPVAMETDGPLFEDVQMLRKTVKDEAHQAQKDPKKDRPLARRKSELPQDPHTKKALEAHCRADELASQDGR
# UniProt O14744, whole entry, looked up: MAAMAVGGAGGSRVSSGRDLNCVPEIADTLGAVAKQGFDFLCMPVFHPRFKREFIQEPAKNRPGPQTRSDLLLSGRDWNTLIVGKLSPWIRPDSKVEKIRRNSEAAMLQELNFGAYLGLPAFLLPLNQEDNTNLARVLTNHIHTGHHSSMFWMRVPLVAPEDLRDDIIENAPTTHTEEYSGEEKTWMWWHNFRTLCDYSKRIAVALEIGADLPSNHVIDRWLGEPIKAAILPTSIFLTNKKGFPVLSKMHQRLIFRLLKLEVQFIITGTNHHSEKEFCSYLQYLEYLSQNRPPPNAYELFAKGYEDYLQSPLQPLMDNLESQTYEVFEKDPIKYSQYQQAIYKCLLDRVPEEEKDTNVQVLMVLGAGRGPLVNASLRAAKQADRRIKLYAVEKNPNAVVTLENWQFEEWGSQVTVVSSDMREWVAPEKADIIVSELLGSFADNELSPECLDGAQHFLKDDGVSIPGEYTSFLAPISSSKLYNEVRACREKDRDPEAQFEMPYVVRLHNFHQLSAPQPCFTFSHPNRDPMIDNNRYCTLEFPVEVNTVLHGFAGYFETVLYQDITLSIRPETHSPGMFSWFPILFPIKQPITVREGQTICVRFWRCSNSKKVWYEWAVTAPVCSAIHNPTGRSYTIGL
# UniProt O75170: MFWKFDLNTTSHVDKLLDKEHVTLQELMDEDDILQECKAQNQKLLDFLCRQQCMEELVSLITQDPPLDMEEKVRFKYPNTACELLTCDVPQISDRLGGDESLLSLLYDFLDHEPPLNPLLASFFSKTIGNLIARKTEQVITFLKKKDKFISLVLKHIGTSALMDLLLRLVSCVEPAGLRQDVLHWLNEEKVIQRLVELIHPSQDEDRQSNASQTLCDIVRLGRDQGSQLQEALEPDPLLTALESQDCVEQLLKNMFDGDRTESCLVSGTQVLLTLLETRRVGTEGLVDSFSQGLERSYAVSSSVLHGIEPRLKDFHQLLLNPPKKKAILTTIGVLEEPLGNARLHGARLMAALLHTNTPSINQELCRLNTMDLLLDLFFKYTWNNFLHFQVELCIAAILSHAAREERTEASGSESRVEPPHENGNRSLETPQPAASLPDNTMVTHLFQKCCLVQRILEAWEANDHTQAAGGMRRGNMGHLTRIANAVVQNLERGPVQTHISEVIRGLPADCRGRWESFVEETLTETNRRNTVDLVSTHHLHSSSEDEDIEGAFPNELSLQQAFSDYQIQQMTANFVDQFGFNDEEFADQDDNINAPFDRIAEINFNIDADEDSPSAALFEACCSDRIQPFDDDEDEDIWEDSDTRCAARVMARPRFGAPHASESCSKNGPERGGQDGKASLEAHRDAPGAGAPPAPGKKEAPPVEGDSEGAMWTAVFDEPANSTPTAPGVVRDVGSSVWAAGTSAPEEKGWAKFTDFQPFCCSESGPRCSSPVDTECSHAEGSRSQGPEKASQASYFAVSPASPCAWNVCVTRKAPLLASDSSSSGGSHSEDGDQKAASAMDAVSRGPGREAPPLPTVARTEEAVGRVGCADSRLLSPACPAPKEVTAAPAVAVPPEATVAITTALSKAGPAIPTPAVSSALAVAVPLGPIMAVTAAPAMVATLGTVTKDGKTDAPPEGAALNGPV
# The other results are listed elsewhere or left out.
# Tests used:
# Assay in all cases: log2 fold change, soluble protein after heating vs DMSO (PISA); higher = thermal stabilisation; K562 lysate, 10 uM; active = over 0.2 and 3.5 SD of the protein, either way, in both replicates (recomputed)
# [1] = compound: CN1CC[C@H](c2c(O)cc(O)c3c(=O)cc(-c4ccccc4Cl)oc23)[C@H](O)C1 [alvocidib]
# Procedure, shortened: (§1)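 Dounce homogenisation of K562 pellets in PBS pH 7.4 with 1 mM MgCl2 produced a crude extract, used at 1 mg/mL protein. Exposure to 10 μM compound lasted 30 min, and aliquots were then heated for 3 min across 48°C-58°C, pooled and brought to 0.5% NP-40 at 4°C. The supernatant after 21,000xg for 90 min was quantified by TMTpro 16plex LC-MS/MS with channel sums equalised. Duplicate values are given as log-two fold change in thermal stability relative to solvent controls.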
# [2] = compound: CN1CCc2c(c3ccccc3n2Cc2ccc(C(=O)NO)cc2)C1 [Tubastatin A]
# Procedure, shortened: as §1
# [3] = compound: CNC(=O)C1=CC=CC=C1NC2=NC(=NC=C2Cl)NC3=C(C=C(C=C3)N4CCOCC4)OC
# Procedure, shortened: as §1
# [4] = compound: CNC(=O)c1ccc(Nc2ncc(C(F)(F)F)c(NCc3nccnc3N(C)S(C)(=O)=O)n2)cc1 [defactinib]
# Procedure, shortened: as §1
# [5] = compound: CNc1nc(-c2ccc3c(N)n[nH]c3c2)cc(N2C[C@@H](C(=O)NC3CCCCC3)CC[C@H]2C)n1
# Procedure, shortened: as §1
# [6] = compound: COC(=O)N[C@@H](C)CNc1nccc(-c2cn(C(C)C)nc2-c2cc(Cl)cc(NS(C)(=O)=O)c2F)n1 [encorafenib]
# Procedure, shortened: as §1
# [7] = compound: COC(=O)[C@H](CCSC)NC(=O)C1=C(C=C(C=C1)NC[C@H](CS)N)C2=CC=CC=C2
# Procedure, shortened: as §1
# [8] = compound: COc1cc(Nc2ncc3c(n2)-c2ccc(Cl)cc2C(c2c(F)cccc2OC)=NC3)ccc1C(=O)O [alisertib]
# Procedure, shortened: as §1
# [9] = compound: COc1cc2nc(-c3cc(F)ccc3O)nc(N[C@@H]3CNC[C@H]3C(C)(C)O)c2cc1OC
# Procedure, shortened: as §1
# [10] = compound: COc1cc2ncnc(Nc3ccc(F)c(Cl)c3)c2cc1OCCCN1CCOCC1 [gefitinib]
# Procedure, shortened: as §1
# [11] = compound: CS(=O)(=O)CCNCc1ccc(-c2ccc3ncnc(Nc4ccc(OCc5cccc(F)c5)c(Cl)c4)c3c2)o1 [lapatinib]
# Procedure, shortened: as §1
# [12] = compound: CS(=O)(=O)N1CCN(Cc2cc3nc(-c4cccc5[nH]ncc45)nc(N4CCOCC4)c3s2)CC1 [pictilisib]
# Procedure, shortened: as §1
# [13] = compound: C[C@@H](Oc1cc(-c2cnn(C3CCNCC3)c2)cnc1N)c1c(Cl)ccc(F)c1Cl [crizotinib]
# Procedure, shortened: as §1
# [14] = compound: C[C@H](C1=CC=C(C=C1)C(=O)NC2=C3C=CNC3=NC=C2)N
# Procedure, shortened: as §1
# [15] = compound: C[C@H](Nc1ncnc2nc[nH]c12)c1cc2cccc(Cl)c2c(=O)n1-c1ccccc1 [duvelisib]
# Procedure, shortened: as §1
# [16] = compound: Cc1cc(Nc2cc(CN3CCOCC3)c3nc(C)c(Cc4ccc(Cl)cc4F)n3n2)n[nH]1 [gandotinib]
# Procedure, shortened: as §1
# [17] = compound: Cc1cc(Nc2cc(N3CCN(C)CC3)nc(Sc3ccc(NC(=O)C4CC4)cc3)n2)n[nH]1 [tozasertib]
# Procedure, shortened: as §1
# [18] = compound: Cc1ccc(-n2nc(C(C)(C)C)cc2NC(=O)Nc2ccc(OCCN3CCOCC3)c3ccccc23)cc1 [doramapimod]
# Procedure, shortened: as §1
# [19] = compound: Cc1ccc(NC(=O)c2ccc(CN3CC[C@H](N(C)C)C3)c(C(F)(F)F)c2)cc1Nc1nccc(-c2cncnc2)n1 [bafetinib]
# Procedure, shortened: as §1
# [20] = compound: Cc1cccc(CC(=O)N2CCc3c2ccc(-c2cn(C)c4ncnc(N)c24)c3F)n1
# Procedure, shortened: as §1
Target,log2 fold change [1],log2 fold change [2],log2 fold change [3],log2 fold change [4],log2 fold change [5],log2 fold change [6],log2 fold change [7],log2 fold change [8],log2 fold change [9],log2 fold change [10],log2 fold change [11],log2 fold change [12],log2 fold change [13],log2 fold change [14],log2 fold change [15],log2 fold change [16],log2 fold change [17],log2 fold change [18],log2 fold change [19],log2 fold change [20]
PPP2R5D (UniProt Q14738),inactive: 0.052,inactive: -0.036,inactive: 0.023,inactive: 0.018,inactive: -0.051,inactive: -0.028,inactive: 0.029,inactive: 0,inactive: 0.011,inactive: 0.003,inactive: -0.018,inactive: -0.055,inactive: -0.024,inactive: 0.015,inactive: 0.059,inactive: -0.071,inactive: -0.01,inactive: -0.02,inactive: -0.024,inactive: -0.017
PRKAB2 (UniProt O43741),inactive: -0.122,inactive: -0.016,inactive: 0.286,inactive: 0.057,inactive: 0.062,inactive: -0.04,inactive: -0.09,inactive: -0.062,inactive: 0.058,inactive: -0.126,inactive: -0.029,inactive: 0.09,inactive: -0.013,active: -0.698,inactive: 0.019,inactive: 0.25,inactive: 0.111,inactive: 0.039,inactive: 0.052,inactive: 0.142
PPME1 isoform 4 (UniProt Q9Y570),inactive: 0.01,inactive: 0.024,inactive: 0.008,inactive: 0.024,inactive: 0.002,inactive: -0.001,inactive: -0.066,inactive: 0.031,inactive: 0.005,inactive: 0.002,inactive: -0.014,inactive: 0.009,inactive: 0.005,inactive: -0.014,inactive: 0.002,inactive: -0.002,inactive: 0.048,inactive: 0.026,inactive: 0.052,inactive: -0.006
PRC1 (UniProt O43663),inactive: 0.002,inactive: -0.157,inactive: 0.043,inactive: -0.012,inactive: 0.012,inactive: 0.031,active: 0.255,inactive: 0.045,inactive: -0.032,inactive: 0.049,inactive: -0.014,inactive: -0.007,inactive: -0.109,inactive: 0.023,inactive: 0.059,inactive: -0.003,inactive: 0.017,inactive: 0.004,inactive: -0.079,inactive: 0.025
PPP5C (UniProt P53041),inactive: -0.03,inactive: 0.019,inactive: -0.02,inactive: -0.016,inactive: 0.03,inactive: 0.001,inactive: -0.039,inactive: 0.002,inactive: 0.003,inactive: -0.012,inactive: -0.006,inactive: 0.016,inactive: -0.002,inactive: -0.104,inactive: 0.011,inactive: 0.028,inactive: -0.006,inactive: 0.017,inactive: -0.012,inactive: 0.014
PPP6R1 (UniProt Q9UPN7),inactive: -0.003,inactive: -0.055,inactive: 0.054,inactive: 0.004,inactive: 0.022,inactive: 0.03,inactive: -0.071,inactive: -0.004,inactive: -0.013,inactive: 0.006,inactive: 0.013,inactive: -0.007,inactive: -0.06,inactive: -0.025,inactive: 0.004,inactive: -0.002,inactive: -0.025,inactive: -0.016,inactive: -0.022,inactive: 0.008
PPP1R14B (UniProt Q96C90),inactive: 0.012,inactive: -0.009,inactive: 0.008,inactive: -0.124,inactive: 0.078,inactive: -0.002,inactive: -0.013,inactive: -0.018,inactive: -0.019,inactive: -0.119,inactive: 0.007,inactive: -0.047,inactive: -0.015,inactive: -0.045,inactive: 0.05,inactive: 0.059,inactive: 0.053,inactive: 0.022,inactive: -0.065,inactive: -0.07
PRCP (UniProt P42785),inactive: -0.012,inactive: 0.079,inactive: -0.019,inactive: -0.02,inactive: -0.19,inactive: -0.01,inactive: -0.004,inactive: -0.039,inactive: -0.005,inactive: 0.021,inactive: 0.012,inactive: -0.008,inactive: -0.089,inactive: -0.001,inactive: 0.014,inactive: 0.057,inactive: 0.024,inactive: -0.049,inactive: -0.039,inactive: -0.011
PQBP1 (UniProt O60828),inactive: -0.017,inactive: 0.057,inactive: 0.004,inactive: -0.002,inactive: 0.069,inactive: 0.027,inactive: -0.086,inactive: 0.007,inactive: -0.008,inactive: 0.02,inactive: 0.023,inactive: 0.036,inactive: 0.03,inactive: -0.023,inactive: 0.012,inactive: 0.101,inactive: -0.018,inactive: 0.013,inactive: -0.02,inactive: 0.012
PRKAR2B (UniProt P31323),inactive: 0,inactive: -0.021,inactive: -0.05,inactive: -0.117,inactive: -0.023,inactive: 0.04,inactive: 0.1,inactive: -0.014,inactive: -0.032,inactive: -0.046,inactive: 0.013,inactive: -0.059,inactive: -0.007,inactive: -0.011,inactive: 0,active: -0.31,inactive: 0.038,inactive: 0.017,inactive: -0.02,inactive: 0.001
PPP1R35 (UniProt Q8TAP8),inactive: -0.147,inactive: 0.022,inactive: 0.032,inactive: -0.023,inactive: -0.025,inactive: 0.099,inactive: -0.025,inactive: -0.06,inactive: -0.026,inactive: -0.084,inactive: 0.084,inactive: 0.004,inactive: 0.128,inactive: -0.019,inactive: 0.142,inactive: 0.058,inactive: -0.038,inactive: -0.014,inactive: -0.046,inactive: 0.074
PRKCA (UniProt P17252),inactive: 0.034,inactive: -0.005,inactive: -0.027,inactive: 0.032,inactive: -0.041,inactive: 0.048,inactive: -0.041,inactive: -0.031,inactive: 0.133,inactive: -0.038,inactive: -0.041,inactive: -0.021,inactive: -0.019,inactive: 0.054,inactive: -0.057,inactive: -0.207,inactive: 0.021,inactive: -0.023,inactive: -0.069,inactive: -0.079
PROS1 (UniProt P07225),inactive: -0.033,inactive: -0.007,inactive: 0.027,inactive: 0.019,inactive: -0.012,inactive: 0.027,inactive: -0.056,inactive: 0.029,inactive: 0.02,inactive: -0.023,inactive: 0.007,inactive: 0.017,inactive: -0.047,inactive: -0.009,inactive: -0.004,inactive: -0.013,inactive: -0.009,inactive: 0.032,inactive: -0.022,inactive: -0.015
PPP2R5C isoform 5 (UniProt Q13362),inactive: 0.016,inactive: -0.018,inactive: 0.012,inactive: 0.029,inactive: -0.048,inactive: 0.029,inactive: -0.039,inactive: 0.002,inactive: -0.014,inactive: 0.004,inactive: -0.03,inactive: 0.01,inactive: 0.004,inactive: 0.069,inactive: 0.02,inactive: -0.08,inactive: 0.054,inactive: -0.005,inactive: -0.001,inactive: -0.036
PRMT5 (UniProt O14744),active: 0.318,inactive: -0.009,inactive: 0.008,inactive: -0.019,inactive: 0.013,inactive: -0.015,inactive: -0.099,inactive: 0,inactive: 0.011,inactive: -0.023,inactive: -0.029,inactive: -0.012,inactive: 0,inactive: -0.02,inactive: 0.158,inactive: 0.011,inactive: 0.017,inactive: -0.004,inactive: -0.021,inactive: -0.008
PPP6R2 isoform 5 (UniProt O75170),inactive: -0.048,inactive: -0.032,inactive: 0.049,inactive: 0.013,inactive: -0.031,inactive: 0.025,inactive: -0.001,inactive: 0,inactive: 0.018,inactive: -0.025,inactive: 0.003,inactive: -0.02,inactive: -0.028,inactive: -0.029,inactive: 0,inactive: 0.005,inactive: -0.041,inactive: -0.037,inactive: -0.039,inactive: 0.021

# Single records, from the list above. Values in the order: log2 fold change [1]	log2 fold change [2]	log2 fold change [3]	log2 fold change [4]	log2 fold change [5]	log2 fold change [6]	log2 fold change [7]	log2 fold change [8]	log2 fold change [9]	log2 fold change [10]	log2 fold change [11]	log2 fold change [12]	log2 fold change [13]	log2 fold change [14]	log2 fold change [15]	log2 fold change [16]	log2 fold change [17]	log2 fold change [18]	log2 fold change [19]	log2 fold change [20]
# PPME1 isoform 4 (UniProt Q9Y570) in the list: inactive: 0.01	inactive: 0.024	inactive: 0.008	inactive: 0.024	inactive: 0.002	inactive: -0.001	inactive: -0.066	inactive: 0.031	inactive: 0.005	inactive: 0.002	inactive: -0.014	inactive: 0.009	inactive: 0.005	inactive: -0.014	inactive: 0.002	inactive: -0.002	inactive: 0.048	inactive: 0.026	inactive: 0.052	inactive: -0.006
# PPP2R5C isoform 5 (UniProt Q13362) in the list: inactive: 0.016	inactive: -0.018	inactive: 0.012	inactive: 0.029	inactive: -0.048	inactive: 0.029	inactive: -0.039	inactive: 0.002	inactive: -0.014	inactive: 0.004	inactive: -0.03	inactive: 0.01	inactive: 0.004	inactive: 0.069	inactive: 0.02	inactive: -0.08	inactive: 0.054	inactive: -0.005	inactive: -0.001	inactive: -0.036
